# Data reported in PubChem BioAssay AID1487 (National Center for Advancing Translational Sciences (NCATS), 2009).
# The other results are listed elsewhere or left out. The main result of the screen is listed elsewhere. These columns were measured beside it and carry no call. Most of these compounds were active or inconclusive in the main read-out, so they are no random draw. The note in brackets gives the kind of curve behind each potency; many fits are weak.
# Experiment: qHTS Assay for Modulators of Lamin A Splicing
# Conditions: HeLa LMNA splicing GFP/RFP minigene ratio, 48 h
# Procedure, shortened: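 S3 HeLa stable clones carrying a lamin A-EGFP splicing minigene plus DsRed2 were seeded at 600 cells/well in Opti-MEM with 2% FBS, pin-dosed and incubated 48 h at 37°C. Acumen cytometry (488 nm) gave the GFP/RFP total-intensity ratio.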
# [1] = measured here: GFP splicing reporter channel
# [2] = measured here: RFP viability control channel
Compound,AC50 [1],AC50 [2]
CCSc1ccc2c(c1)N(CCCN1CCN(C)CC1)c1ccccc1S2,"0.447 µM [rising, full curve, poor fit]","0.0794 µM [rising, full curve, poor fit]"
CC(C)c1ccc(NC(=O)Cc2cn(C)c3ccccc23)cc1,,"0.794 µM [falling, full curve, poor fit]"
c1ccc(-c2ccc(OCCCn3cncn3)cc2)cc1,,"11.2 µM [rising, single point]"
COc1ccc(/C=C(/NC(=O)c2ccccc2)c2nc3ccc(Cl)cc3[nH]2)cc1OC,"7.08 µM [rising, partial curve, poor fit]","35.5 µM [rising, partial curve]"
Cc1cccc(Oc2sc(C(=O)c3ccccc3)c(N)c2C#N)c1C,"31.6 µM [falling, single point]","25.1 µM [falling, single point]"
O=C(N/N=C/c1ccsc1)c1cc(-c2cccs2)nc2ccccc12,,"7.08 µM [rising, partial curve]"
COc1ccc(NS(=O)(=O)c2ccc(OCC(=O)N3CCOCC3)cc2)cc1,,"22.4 µM [rising, single point]"
CC(C)CNC(=S)NC(=O)c1ccc(Cl)cc1,,"31.6 µM [rising, single point]"
CC(C)(C)c1cc(C(=O)NCc2ccccc2)ccn1,"3.98 µM [rising, partial curve, poor fit]","10 µM [rising, partial curve]"
COc1ccc(/C=C2\SC(=S)N(N3C(=O)CCC3=O)C2=O)cc1O,,"5.62 µM [falling, partial curve, poor fit]"
CCOC(=O)c1cc(-c2cc(OC)c(OC)c(OC)c2)nc2c1c(=O)[nH]c(=O)n2Cc1ccccc1,"3.16 µM [falling, partial curve]",
Cc1c(O)cccc1C(=O)N[C@@H](CSc1ccccc1)[C@H](O)CN1C[C@H]2CCCC[C@H]2C[C@H]1C(=O)NC(C)(C)C,"0.00355 µM [falling, full curve, poor fit]",
CCOC(=O)c1c(/N=C/N(C)C)sc(/C=N/Nc2ccccc2)c1-c1ccccc1,"7.08 µM [rising, single point]",
Cc1ccc(SC(C)C(=O)Nc2ccccc2-c2ccccc2)cc1 (stereo not drawn),"35.5 µM [rising, single point]","35.5 µM [rising, single point]"
NS(=O)(=O)c1cccnc1Nc1cccc(Cl)c1Cl,"35.5 µM [rising, single point]","35.5 µM [rising, single point]"
Cc1ccc(OCc2nc(C#N)c(N3CCCCC3)o2)cc1,"0.708 µM [falling, full curve, poor fit]",
O=c1cc(-c2ccccc2[N+](=O)[O-])oc2ccccc12,,"35.5 µM [falling, single point]"
COc1cccc(C2C=C(c3ccc(Br)s3)Nc3ncnn32)c1OC (stereo not drawn),"0.794 µM [falling, single point]",
N/C(=N\OC(=O)/C=C/c1ccccc1)c1ccc(Br)cc1,"35.5 µM [rising, partial curve, poor fit]",
COc1cc(CNC(C)C)c(Br)cc1OC1CCCC1,"12.6 µM [falling, partial curve]","11.2 µM [falling, partial curve]"
CC(=O)c1ccc(OCc2cc(=O)n3ccsc3n2)cc1,"3.55 µM [falling, full curve, poor fit]","5.62 µM [falling, full curve, poor fit]"
O=C(Nc1ccc(Cl)cc1)c1cc(S(=O)(=O)NC2CCCCCC2)ccc1F,"20 µM [falling, partial curve, poor fit]","14.1 µM [falling, partial curve, poor fit]"
CSc1ccccc1C(=O)NCc1cccnc1,,"0.0631 µM [falling, full curve, poor fit]"
O=C(Nc1ccccc1)c1ccc(-c2ccccc2Cl)o1,,"17.8 µM [rising, partial curve]"
O=C(COC(=O)c1ccccc1C(=O)c1ccccc1)NCCc1ccc(Cl)cc1Cl,,"12.6 µM [rising, single point]"
Cc1cccc(N(C(=O)Cn2nnc(-c3ccc(F)cc3)n2)C(C(=O)NC(C)(C)C)c2ccncc2)c1 (stereo not drawn),"0.00447 µM [rising, full curve, poor fit]",
COCCCNCC#CCOc1ccc(OC)cc1,,"0.141 µM [rising, full curve, poor fit]"
O=C(/C=C/c1cccs1)c1cc(Br)ccc1OC(=O)N1CCOCC1,,"2.51 µM [falling, single point]"

# Look-ups from the list.
# AC50 [2] with COCCCNCC#CCOc1ccc(OC)cc1 is entered as 0.141 µM [rising, full curve, poor fit]
# AC50 [2] with O=c1cc(-c2ccccc2[N+](=O)[O-])oc2ccccc12 is entered as 35.5 µM [falling, single point]
# AC50 [2] with O=C(COC(=O)c1ccccc1C(=O)c1ccccc1)NCCc1ccc(Cl)cc1Cl is entered as 12.6 µM [rising, single point]

# Remaining list, next part.

Compound,AC50 [1],AC50 [2]
CC(C)n1cc(C(=O)c2ccccc2O)cc(C#N)c1=O,"0.00355 µM [rising, full curve, poor fit]",
COc1ccccc1NC(=O)CC(c1ccc(OC(C)C)cc1)c1ccccc1OC (stereo not drawn),,"14.1 µM [rising, single point]"
COc1ccc(S(=O)(=O)N(C)C)cc1NC(=O)CSc1nc(N)cc(N)n1,"0.282 µM [falling, full curve, poor fit]",
O=C(CN1CCN(c2cccc(C(F)(F)F)c2)CC1)Nc1cccc(C(F)(F)F)c1,,"35.5 µM [rising, single point]"
COc1ccc(C(=O)NCc2ccc(Cl)c(Cl)c2)cc1OC,"11.2 µM [rising, single point]","17.8 µM [rising, single point]"
CCCCCn1c(=O)[nH]c2cc(C(=O)N3CCN(Cc4ccc5c(c4)OCO5)CC3)ccc2c1=O,,"0.794 µM [rising, full curve]"
O=C(c1ccccc1Nc1ccc(SC(F)F)cc1)N1CCCCCC1,"22.4 µM [falling, single point]","17.8 µM [falling, single point]"
N#Cc1cccc(NC(=O)COc2ccc(-n3ccnc3)cc2)c1,,"35.5 µM [rising, single point]"
Clc1ccc(CSc2nnc3c(n2)[nH]c2ccccc23)cc1,"3.16 µM [falling, full curve, poor fit]","2.82 µM [falling, full curve, poor fit]"
O=C(CSc1nnc(-c2ccccc2O)o1)Oc1ccc(OCc2ccccc2)cc1,"14.1 µM [rising, single point]","12.6 µM [rising, partial curve]"
Cc1cccc(Nc2nc(-c3ccncc3)cs2)c1,"5.62 µM [falling, single point]",
COc1cccc(-c2ccc3ncnc(N(C)C)c3c2)c1,"12.6 µM [falling, partial curve]","12.6 µM [falling, partial curve]"
CC(C)Oc1cccc(C(=O)NC(=S)Nc2cccc(NC(=O)c3ccccc3Cl)c2)c1,,"17.8 µM [rising, single point]"
CCOC(=O)N1CCN(c2ccc([N+](=O)[O-])cc2)CC1,"15.8 µM [rising, single point]","20 µM [rising, single point]"
O=S(=O)(c1ccccc1)N1CCN(CC(O)COc2ccc3c(c2)CCC3)CC1 (stereo not drawn),,"12.6 µM [rising, single point]"
CC(C)(C)C(=O)Nc1cc(S(=O)(=O)Nc2ccc(Cl)cc2)ccc1Cl,"11.2 µM [rising, single point]","15.8 µM [rising, partial curve]"
CCOC(=O)C(=Cc1cc(=O)c(OC)co1)C(=O)OCC,"12.6 µM [rising, partial curve, poor fit]","22.4 µM [rising, single point]"
CN(C)CCC(c1ccccc1)c1ccccn1 (stereo not drawn),"7.94 µM [falling, full curve, poor fit]","0.0447 µM [falling, full curve]"
O=C(/C=C/c1ccc(Cl)cc1Cl)Nc1cccc(S(=O)(=O)NC2=NCCCCC2)c1,"10 µM [rising, partial curve]","12.6 µM [rising, partial curve]"
Cc1ccc(S(=O)(=O)CC(C)N2CCOCC2)c(S(=O)(=O)CC(C)N2CCOCC2)c1 (stereo not drawn),,"20 µM [falling, partial curve, poor fit]"
Cc1ccc(C)c(S(=O)(=O)N2CCCOC2CNC(=O)C(=O)NCCC2=CCCCC2)c1 (stereo not drawn),"25.1 µM [rising, single point]","35.5 µM [rising, single point]"
C=C(C)CNC(=S)N1CCN(C(c2ccccc2)c2ccccc2)CC1,"0.355 µM [falling, full curve, poor fit]","0.224 µM [falling, full curve, poor fit]"
NS(=O)(=O)c1ccc(NC(=O)c2cc(Cl)ccc2Cl)cc1,,"0.501 µM [rising, partial curve]"
CCCN1C(=O)/C(=C2/C=Cc3ccccc3N2CC)SC1=S,"0.708 µM [rising, partial curve, poor fit]","1 µM [rising, single point]"
Cc1cc(C)c(O)c(N)c1,,"35.5 µM [rising, single point]"
Cc1ccc(SCCCCN2CCNCC2)cc1,"35.5 µM [rising, single point]",
Cc1[nH]c2ccccc2c1/C=N/NC(=O)C1CC1(c1ccccc1)c1ccccc1 (stereo not drawn),"12.6 µM [rising, single point]","20 µM [rising, single point]"
